{"source": "PubChem BioAssay AID1259308 – NCATS, 2017", "screen": "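Candidate targets for better recombinant protein yield in mammalian cells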 (primary screen)", "cell system": "human HEK293 embryonic kidney cells stably expressing firefly luciferase (HEK-CMV-Luc2-Hygro)", "knock-down reagent": "single siRNA against human genes, 0.8 pmol siRNA per well", "timing": "72 h", "measurement": "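Luciferase light (ONE-Glo) measured on one replicate plate set and viability (CellTiter-Glo) on the other, scaled to a negative control siRNA, with robust z-scores and luciferase per cell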", "reading the numbers": "total luciferase, z-score and total luciferase, % of control: higher = more reporter protein produced", "active means": "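An siRNA counts as active if its total luciferase robust z-score exceeds 3; genes with two or more such siRNAs out of three were retested with fresh siRNAs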", "calls": "active = raised luciferase; inactive = no rise", "note": "The deposit covers about 59,000 reagents; shown is a random part of them. Of all reagents, about 1,510 (2.6%) were called active. 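Calls use total luciferase alone and ignore viability, so some active siRNAs may act by altering cell number.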 The numbers tell different reagents against one gene apart. Not all columns of the deposit are shown."}
{"gene knocked down":"GSDMD","reagent no.":1,"total luciferase, z-score":-0.0883,"total luciferase, % of control":80.1,"Outcome":"inactive"}
{"gene knocked down":"GSDMD","reagent no.":2,"total luciferase, z-score":-0.323,"total luciferase, % of control":75.5,"Outcome":"inactive"}
{"gene knocked down":"GSDMD","reagent no.":3,"total luciferase, z-score":1.05,"total luciferase, % of control":103,"Outcome":"inactive"}
{"gene knocked down":"PIPOX","reagent no.":1,"total luciferase, z-score":-0.0982,"total luciferase, % of control":79.9,"Outcome":"inactive"}
{"gene knocked down":"PIPOX","reagent no.":2,"total luciferase, z-score":0.11,"total luciferase, % of control":84.1,"Outcome":"inactive"}
{"gene knocked down":"PIPOX","reagent no.":3,"total luciferase, z-score":0.155,"total luciferase, % of control":85,"Outcome":"inactive"}
{"gene knocked down":"PIAS1","reagent no.":1,"total luciferase, z-score":-0.55,"total luciferase, % of control":70.9,"Outcome":"inactive"}
{"gene knocked down":"PIAS1","reagent no.":2,"total luciferase, z-score":0.217,"total luciferase, % of control":86.2,"Outcome":"inactive"}
{"gene knocked down":"PIAS1","reagent no.":3,"total luciferase, z-score":0.249,"total luciferase, % of control":86.8,"Outcome":"inactive"}
{"gene knocked down":"PCGF2","reagent no.":1,"total luciferase, z-score":0.441,"total luciferase, % of control":90.6,"Outcome":"inactive"}
{"gene knocked down":"PCGF2","reagent no.":2,"total luciferase, z-score":-0.0258,"total luciferase, % of control":81.4,"Outcome":"inactive"}
{"gene knocked down":"PCGF2","reagent no.":3,"total luciferase, z-score":2.6,"total luciferase, % of control":134,"Outcome":"inactive"}
{"gene knocked down":"UVRAG","reagent no.":1,"total luciferase, z-score":1.4,"total luciferase, % of control":110,"Outcome":"inactive"}
{"gene knocked down":"UVRAG","reagent no.":2,"total luciferase, z-score":2.14,"total luciferase, % of control":124,"Outcome":"inactive"}
{"gene knocked down":"UVRAG","reagent no.":3,"total luciferase, z-score":-1.41,"total luciferase, % of control":53.9,"Outcome":"inactive"}
{"gene knocked down":"BAHCC1","reagent no.":1,"total luciferase, z-score":1.37,"total luciferase, % of control":109,"Outcome":"inactive"}
{"gene knocked down":"BAHCC1","reagent no.":2,"total luciferase, z-score":3.16,"total luciferase, % of control":145,"Outcome":"active"}
{"gene knocked down":"BAHCC1","reagent no.":3,"total luciferase, z-score":-0.458,"total luciferase, % of control":72.8,"Outcome":"inactive"}
{"gene knocked down":"PDCD7","reagent no.":1,"total luciferase, z-score":0.0867,"total luciferase, % of control":83.6,"Outcome":"inactive"}
{"gene knocked down":"PDCD7","reagent no.":2,"total luciferase, z-score":-0.408,"total luciferase, % of control":73.8,"Outcome":"inactive"}
{"gene knocked down":"PDCD7","reagent no.":3,"total luciferase, z-score":0.11,"total luciferase, % of control":84.1,"Outcome":"inactive"}
{"gene knocked down":"PF4","reagent no.":1,"total luciferase, z-score":0.325,"total luciferase, % of control":88.3,"Outcome":"inactive"}
{"gene knocked down":"PF4","reagent no.":2,"total luciferase, z-score":1.86,"total luciferase, % of control":119,"Outcome":"inactive"}
{"gene knocked down":"PF4","reagent no.":3,"total luciferase, z-score":0.688,"total luciferase, % of control":95.6,"Outcome":"inactive"}
{"gene knocked down":"SLC4A10","reagent no.":1,"total luciferase, z-score":-1.21,"total luciferase, % of control":57.8,"Outcome":"inactive"}
{"gene knocked down":"SLC4A10","reagent no.":2,"total luciferase, z-score":-0.242,"total luciferase, % of control":77.1,"Outcome":"inactive"}
{"gene knocked down":"SLC4A10","reagent no.":3,"total luciferase, z-score":-0.507,"total luciferase, % of control":71.8,"Outcome":"inactive"}
{"gene knocked down":"LMNB2","reagent no.":1,"total luciferase, z-score":-0.00338,"total luciferase, % of control":81.8,"Outcome":"inactive"}
{"gene knocked down":"LMNB2","reagent no.":2,"total luciferase, z-score":-1.56,"total luciferase, % of control":50.8,"Outcome":"inactive"}
{"gene knocked down":"LMNB2","reagent no.":3,"total luciferase, z-score":-0.421,"total luciferase, % of control":73.5,"Outcome":"inactive"}
{"gene knocked down":"POMGNT2","reagent no.":1,"total luciferase, z-score":0.172,"total luciferase, % of control":85.3,"Outcome":"inactive"}
{"gene knocked down":"POMGNT2","reagent no.":2,"total luciferase, z-score":-1.97,"total luciferase, % of control":42.6,"Outcome":"inactive"}
{"gene knocked down":"POMGNT2","reagent no.":3,"total luciferase, z-score":0.768,"total luciferase, % of control":97.2,"Outcome":"inactive"}

Called active, among the entries above:
{"gene knocked down":"BAHCC1","reagent no.":2,"total luciferase, z-score":3.16,"total luciferase, % of control":145,"Outcome":"active"}
